The list shows a part of the results. The data scatter; read single values as rough.
Experiments:
[1] = compound: ClCC(=O)N[C@@H]1CCCc2ccccc12; test: log2 mean competition ratio of IA-DTB cysteine labelling (DMSO/compound) (log2 ratio); higher = stronger cysteine engagement by compound; conditions: treatment time: 4 h, cell line lysate: HEK293T
Method: (§1)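 IA-DTB competitive cysteine chemoproteomics in HEK293T RIPA lysate. Lysates were treated with compound 29 or 30 at 50 or 200 µM for 4 h, then IA-DTB (500 µM, 1 h), trypsin-digested, NeutrAvidin-enriched and analysed by diaPASEF. Competition ratio = intensity DMSO / intensity compound (n=4 treated, n=64 DMSO); binding: mean log2 CR ≥ 1 and p ≤ 0.05 plus QC filters. Target is the cysteine site.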

By UniProt entry, the sequences of proteins in these tests, tags left out. Where a name states a change or a piece, a line headed by the entry shows the natural chain unless it says otherwise. Residues count along the entry.
UniProt Q01968: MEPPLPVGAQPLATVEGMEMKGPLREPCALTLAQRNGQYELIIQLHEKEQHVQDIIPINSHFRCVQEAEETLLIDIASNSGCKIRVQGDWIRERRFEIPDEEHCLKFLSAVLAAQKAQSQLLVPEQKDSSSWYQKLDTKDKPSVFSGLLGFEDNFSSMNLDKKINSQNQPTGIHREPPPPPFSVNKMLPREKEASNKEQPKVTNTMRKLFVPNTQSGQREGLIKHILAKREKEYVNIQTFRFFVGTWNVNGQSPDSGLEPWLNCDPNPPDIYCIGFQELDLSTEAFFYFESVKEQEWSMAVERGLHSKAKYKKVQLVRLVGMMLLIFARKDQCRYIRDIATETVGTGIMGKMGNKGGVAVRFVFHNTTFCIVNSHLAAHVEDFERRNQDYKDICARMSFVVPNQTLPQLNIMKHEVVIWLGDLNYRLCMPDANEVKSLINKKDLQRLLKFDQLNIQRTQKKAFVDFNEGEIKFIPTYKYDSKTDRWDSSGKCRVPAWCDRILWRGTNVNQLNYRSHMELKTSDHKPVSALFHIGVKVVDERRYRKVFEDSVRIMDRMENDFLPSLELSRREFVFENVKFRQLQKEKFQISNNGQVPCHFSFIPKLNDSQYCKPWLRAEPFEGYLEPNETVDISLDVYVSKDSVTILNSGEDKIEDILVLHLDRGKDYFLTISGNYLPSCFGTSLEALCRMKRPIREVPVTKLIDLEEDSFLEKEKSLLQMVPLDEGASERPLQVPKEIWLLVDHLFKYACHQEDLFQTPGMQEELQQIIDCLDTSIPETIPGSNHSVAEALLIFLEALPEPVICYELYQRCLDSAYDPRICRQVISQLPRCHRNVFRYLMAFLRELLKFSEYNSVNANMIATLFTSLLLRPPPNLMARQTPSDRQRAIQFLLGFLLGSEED
UniProt O75665: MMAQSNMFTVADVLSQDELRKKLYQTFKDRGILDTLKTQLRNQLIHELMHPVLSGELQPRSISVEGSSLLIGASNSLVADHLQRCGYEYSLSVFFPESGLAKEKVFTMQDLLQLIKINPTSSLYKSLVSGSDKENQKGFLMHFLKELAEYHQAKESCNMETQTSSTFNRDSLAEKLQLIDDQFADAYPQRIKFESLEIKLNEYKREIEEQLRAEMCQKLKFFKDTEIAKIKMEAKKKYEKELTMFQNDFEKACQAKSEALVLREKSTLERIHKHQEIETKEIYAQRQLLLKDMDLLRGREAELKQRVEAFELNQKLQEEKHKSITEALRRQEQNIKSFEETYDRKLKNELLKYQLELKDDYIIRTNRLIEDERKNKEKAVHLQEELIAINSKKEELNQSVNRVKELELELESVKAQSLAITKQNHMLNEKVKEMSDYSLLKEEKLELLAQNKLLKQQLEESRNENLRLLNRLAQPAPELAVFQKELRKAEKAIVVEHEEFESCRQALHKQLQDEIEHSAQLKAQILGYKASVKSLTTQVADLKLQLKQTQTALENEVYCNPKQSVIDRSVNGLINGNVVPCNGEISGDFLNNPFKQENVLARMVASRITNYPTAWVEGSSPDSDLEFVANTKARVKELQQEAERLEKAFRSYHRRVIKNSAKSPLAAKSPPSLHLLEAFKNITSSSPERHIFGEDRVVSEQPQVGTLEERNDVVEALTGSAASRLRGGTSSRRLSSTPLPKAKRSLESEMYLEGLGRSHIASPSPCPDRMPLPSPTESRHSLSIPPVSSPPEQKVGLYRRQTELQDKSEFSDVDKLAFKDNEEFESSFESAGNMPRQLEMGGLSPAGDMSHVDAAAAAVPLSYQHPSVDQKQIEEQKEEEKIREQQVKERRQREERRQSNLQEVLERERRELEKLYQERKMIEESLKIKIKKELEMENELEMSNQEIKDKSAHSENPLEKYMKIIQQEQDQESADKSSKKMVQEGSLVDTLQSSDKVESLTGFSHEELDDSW
UniProt Q8WVJ2: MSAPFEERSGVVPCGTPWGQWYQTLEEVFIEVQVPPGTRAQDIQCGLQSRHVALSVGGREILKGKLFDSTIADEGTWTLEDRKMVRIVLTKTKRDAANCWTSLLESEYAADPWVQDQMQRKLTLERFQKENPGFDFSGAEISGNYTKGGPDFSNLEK
UniProt Q14207: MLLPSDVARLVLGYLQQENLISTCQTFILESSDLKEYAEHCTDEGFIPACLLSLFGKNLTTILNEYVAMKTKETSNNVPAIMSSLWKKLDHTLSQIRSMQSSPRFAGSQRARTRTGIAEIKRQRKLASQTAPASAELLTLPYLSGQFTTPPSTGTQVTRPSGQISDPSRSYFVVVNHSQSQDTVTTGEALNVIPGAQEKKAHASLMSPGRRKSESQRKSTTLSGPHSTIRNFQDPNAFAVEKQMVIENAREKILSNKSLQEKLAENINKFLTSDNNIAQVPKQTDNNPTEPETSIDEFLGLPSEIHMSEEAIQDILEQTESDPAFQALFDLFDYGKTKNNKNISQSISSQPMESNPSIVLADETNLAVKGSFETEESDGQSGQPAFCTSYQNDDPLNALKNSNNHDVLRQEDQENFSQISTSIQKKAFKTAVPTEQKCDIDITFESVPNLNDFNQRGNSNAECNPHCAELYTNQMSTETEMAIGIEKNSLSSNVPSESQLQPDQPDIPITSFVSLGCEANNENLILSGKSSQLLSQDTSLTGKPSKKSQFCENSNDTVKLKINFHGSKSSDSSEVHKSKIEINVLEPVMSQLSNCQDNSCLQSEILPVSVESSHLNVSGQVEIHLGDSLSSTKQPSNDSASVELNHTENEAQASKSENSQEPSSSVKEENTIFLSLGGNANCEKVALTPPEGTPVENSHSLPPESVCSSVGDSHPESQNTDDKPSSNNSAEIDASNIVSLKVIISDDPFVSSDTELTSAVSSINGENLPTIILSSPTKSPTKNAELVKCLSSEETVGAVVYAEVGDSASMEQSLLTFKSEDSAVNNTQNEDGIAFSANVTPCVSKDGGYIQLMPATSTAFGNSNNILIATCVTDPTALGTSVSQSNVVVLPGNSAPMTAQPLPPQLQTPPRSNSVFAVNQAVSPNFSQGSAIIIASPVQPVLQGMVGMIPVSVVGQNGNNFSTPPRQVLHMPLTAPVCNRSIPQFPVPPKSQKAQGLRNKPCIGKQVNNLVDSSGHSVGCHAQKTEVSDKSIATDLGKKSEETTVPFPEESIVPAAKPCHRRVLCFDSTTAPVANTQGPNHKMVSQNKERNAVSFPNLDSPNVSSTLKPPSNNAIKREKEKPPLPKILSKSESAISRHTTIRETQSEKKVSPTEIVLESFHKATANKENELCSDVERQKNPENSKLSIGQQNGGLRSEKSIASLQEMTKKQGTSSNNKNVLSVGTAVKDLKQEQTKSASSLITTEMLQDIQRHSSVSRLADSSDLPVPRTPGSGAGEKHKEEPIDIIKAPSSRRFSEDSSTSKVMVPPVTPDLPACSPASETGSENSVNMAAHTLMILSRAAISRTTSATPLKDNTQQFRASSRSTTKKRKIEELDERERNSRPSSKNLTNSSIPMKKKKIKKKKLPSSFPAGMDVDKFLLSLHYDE
UniProt Q9NZT2: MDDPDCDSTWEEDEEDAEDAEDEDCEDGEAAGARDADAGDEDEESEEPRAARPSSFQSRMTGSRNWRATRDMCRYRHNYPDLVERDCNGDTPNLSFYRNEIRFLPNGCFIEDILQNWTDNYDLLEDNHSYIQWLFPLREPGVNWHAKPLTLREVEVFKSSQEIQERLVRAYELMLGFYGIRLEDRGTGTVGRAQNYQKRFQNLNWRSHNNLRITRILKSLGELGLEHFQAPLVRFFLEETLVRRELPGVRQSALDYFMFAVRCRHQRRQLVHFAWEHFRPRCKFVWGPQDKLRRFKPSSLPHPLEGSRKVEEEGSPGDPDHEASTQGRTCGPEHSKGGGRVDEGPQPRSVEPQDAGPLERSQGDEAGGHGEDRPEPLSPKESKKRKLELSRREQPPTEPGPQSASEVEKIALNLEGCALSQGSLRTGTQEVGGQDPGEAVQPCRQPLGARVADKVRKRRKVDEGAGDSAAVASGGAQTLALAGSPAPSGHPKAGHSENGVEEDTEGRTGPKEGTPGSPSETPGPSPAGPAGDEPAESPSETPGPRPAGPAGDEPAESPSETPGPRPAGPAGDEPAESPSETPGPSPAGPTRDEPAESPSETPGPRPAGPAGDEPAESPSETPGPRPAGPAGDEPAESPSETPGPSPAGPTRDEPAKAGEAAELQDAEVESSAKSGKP
UniProt O60502: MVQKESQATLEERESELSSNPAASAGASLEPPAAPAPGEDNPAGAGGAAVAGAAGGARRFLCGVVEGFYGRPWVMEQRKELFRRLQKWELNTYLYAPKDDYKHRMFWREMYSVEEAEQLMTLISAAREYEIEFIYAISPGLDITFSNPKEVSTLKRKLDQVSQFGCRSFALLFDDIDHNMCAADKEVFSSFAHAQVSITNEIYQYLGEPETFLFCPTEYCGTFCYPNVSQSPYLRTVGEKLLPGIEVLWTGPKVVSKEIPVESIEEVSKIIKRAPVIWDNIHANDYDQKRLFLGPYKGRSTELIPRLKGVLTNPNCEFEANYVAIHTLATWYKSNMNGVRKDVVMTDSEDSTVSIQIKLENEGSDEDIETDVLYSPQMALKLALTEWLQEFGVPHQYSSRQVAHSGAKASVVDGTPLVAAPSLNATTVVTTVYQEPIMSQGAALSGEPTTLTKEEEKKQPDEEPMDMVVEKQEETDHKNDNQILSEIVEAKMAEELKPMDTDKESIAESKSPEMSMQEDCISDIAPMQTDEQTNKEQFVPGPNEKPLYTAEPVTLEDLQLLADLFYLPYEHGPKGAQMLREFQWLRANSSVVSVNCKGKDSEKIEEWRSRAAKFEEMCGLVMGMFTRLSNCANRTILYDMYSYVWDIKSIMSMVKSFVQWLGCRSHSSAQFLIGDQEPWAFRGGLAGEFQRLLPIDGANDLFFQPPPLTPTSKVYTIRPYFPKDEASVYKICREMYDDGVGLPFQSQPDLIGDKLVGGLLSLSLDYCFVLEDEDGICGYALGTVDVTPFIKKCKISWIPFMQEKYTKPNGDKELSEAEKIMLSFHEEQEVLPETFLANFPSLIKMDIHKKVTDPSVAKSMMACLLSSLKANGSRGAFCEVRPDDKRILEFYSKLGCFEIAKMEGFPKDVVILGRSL
UniProt Q9BZ95, 166-187: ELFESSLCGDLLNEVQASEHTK
UniProt O75694: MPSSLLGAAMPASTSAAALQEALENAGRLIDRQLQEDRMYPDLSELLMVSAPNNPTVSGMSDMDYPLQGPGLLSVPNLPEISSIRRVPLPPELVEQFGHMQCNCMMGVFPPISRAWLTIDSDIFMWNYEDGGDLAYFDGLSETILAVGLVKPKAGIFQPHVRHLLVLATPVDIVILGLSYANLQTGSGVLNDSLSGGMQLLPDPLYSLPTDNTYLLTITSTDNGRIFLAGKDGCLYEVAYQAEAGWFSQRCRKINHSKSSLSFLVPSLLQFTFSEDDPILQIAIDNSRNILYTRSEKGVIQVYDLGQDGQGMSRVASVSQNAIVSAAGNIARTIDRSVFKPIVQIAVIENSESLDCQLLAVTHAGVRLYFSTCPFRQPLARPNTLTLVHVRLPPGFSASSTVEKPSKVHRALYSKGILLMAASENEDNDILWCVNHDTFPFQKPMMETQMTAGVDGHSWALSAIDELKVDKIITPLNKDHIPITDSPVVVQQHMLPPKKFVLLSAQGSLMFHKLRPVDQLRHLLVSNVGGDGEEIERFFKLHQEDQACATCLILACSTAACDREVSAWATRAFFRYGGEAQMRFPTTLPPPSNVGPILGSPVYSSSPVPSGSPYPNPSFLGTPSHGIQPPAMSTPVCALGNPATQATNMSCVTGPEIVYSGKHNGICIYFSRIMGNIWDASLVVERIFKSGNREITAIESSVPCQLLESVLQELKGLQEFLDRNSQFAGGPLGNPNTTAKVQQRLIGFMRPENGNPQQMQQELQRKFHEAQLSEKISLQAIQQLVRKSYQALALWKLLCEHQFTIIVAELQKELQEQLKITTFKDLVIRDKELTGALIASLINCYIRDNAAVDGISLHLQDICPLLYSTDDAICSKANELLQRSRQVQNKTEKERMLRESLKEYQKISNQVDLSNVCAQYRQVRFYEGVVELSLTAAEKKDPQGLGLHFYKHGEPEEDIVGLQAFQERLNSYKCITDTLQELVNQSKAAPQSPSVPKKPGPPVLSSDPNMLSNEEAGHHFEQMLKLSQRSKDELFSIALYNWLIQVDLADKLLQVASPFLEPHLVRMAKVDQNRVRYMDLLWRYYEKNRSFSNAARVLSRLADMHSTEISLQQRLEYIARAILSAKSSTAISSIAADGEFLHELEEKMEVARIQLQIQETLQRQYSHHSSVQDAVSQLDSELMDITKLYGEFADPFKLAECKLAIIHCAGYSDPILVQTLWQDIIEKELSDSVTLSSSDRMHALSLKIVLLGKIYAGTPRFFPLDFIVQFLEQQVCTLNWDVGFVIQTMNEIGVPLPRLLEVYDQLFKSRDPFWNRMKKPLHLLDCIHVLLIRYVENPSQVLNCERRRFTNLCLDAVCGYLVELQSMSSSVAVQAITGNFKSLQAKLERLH

[2] = compound: ClCC(=O)N[C@H]1CCCc2ccccc12; test: as above; conditions: treatment time: 4 h, cell line lysate: HEK293T
Method: as §1

NUDCD1 C7 (UniProt Q96RS6)
log2 mean competition ratio ([1]; 50 µM): 0.289 | log2 mean competition ratio ([1]; 200 µM): 0.0814 | log2 mean competition ratio ([2]; 50 µM): 0.281 | log2 mean competition ratio ([2]; 200 µM): 0.163

OBI1 C321 (UniProt Q5W0B1)
log2 mean competition ratio ([1]; 50 µM): 0.0705 | log2 mean competition ratio ([1]; 200 µM): 0.13 | log2 mean competition ratio ([2]; 50 µM): 0.15 | log2 mean competition ratio ([2]; 200 µM): 0.307

OCRL C811 (UniProt Q01968)
log2 mean competition ratio ([1]; 50 µM): -0.0206 | log2 mean competition ratio ([1]; 200 µM): 0.411 | log2 mean competition ratio ([2]; 50 µM): -0.142 | log2 mean competition ratio ([2]; 200 µM): 0.103

OFD1 C503 (UniProt O75665)
log2 mean competition ratio ([1]; 50 µM): 0.351 | log2 mean competition ratio ([1]; 200 µM): 0.453 | log2 mean competition ratio ([2]; 50 µM): 0.0937 | log2 mean competition ratio ([2]; 200 µM): -0.108

NUDCD1 C111 (UniProt Q96RS6)
log2 mean competition ratio ([1]; 50 µM): -0.0982 | log2 mean competition ratio ([1]; 200 µM): 0.103 | log2 mean competition ratio ([2]; 50 µM): -0.359 | log2 mean competition ratio ([2]; 200 µM): 0.179

NUP160 C916 (UniProt Q12769)
log2 mean competition ratio ([1]; 50 µM): -0.179 | log2 mean competition ratio ([1]; 200 µM): -0.201 | log2 mean competition ratio ([2]; 50 µM): -0.219 | log2 mean competition ratio ([2]; 200 µM): -0.102

NUDCD2 C45 (UniProt Q8WVJ2)
log2 mean competition ratio ([1]; 50 µM): -0.174 | log2 mean competition ratio ([1]; 200 µM): -0.2 | log2 mean competition ratio ([2]; 50 µM): -0.366 | log2 mean competition ratio ([2]; 200 µM): -0.289

OSBPL11 C34 (UniProt Q9BXB4)
log2 mean competition ratio ([1]; 50 µM): 0.0264 | log2 mean competition ratio ([1]; 200 µM): -0.0206 | log2 mean competition ratio ([2]; 50 µM): -0.0222 | log2 mean competition ratio ([2]; 200 µM): -0.133

NUDT8 C5 (UniProt Q8WV74)
log2 mean competition ratio ([1]; 50 µM): 0.0739 | log2 mean competition ratio ([1]; 200 µM): -0.344 | log2 mean competition ratio ([2]; 50 µM): 0.164 | log2 mean competition ratio ([2]; 200 µM): -0.16

NUB1 C400
log2 mean competition ratio ([1]; 50 µM): 0.0323 | log2 mean competition ratio ([1]; 200 µM): -0.111 | log2 mean competition ratio ([2]; 50 µM): -0.102 | log2 mean competition ratio ([2]; 200 µM): -0.182

NPAT C1020 (UniProt Q14207)
log2 mean competition ratio ([1]; 50 µM): 0.134 | log2 mean competition ratio ([1]; 200 µM): 0.219 | log2 mean competition ratio ([2]; 50 µM): 0.489 | log2 mean competition ratio ([2]; 200 µM): -0.00556

OGFR C443 (UniProt Q9NZT2)
log2 mean competition ratio ([1]; 50 µM): -0.258 | log2 mean competition ratio ([1]; 200 µM): 0.0245 | log2 mean competition ratio ([2]; 50 µM): 0.425 | log2 mean competition ratio ([2]; 200 µM): 0.135

ORC1 C506 (UniProt Q13415)
log2 mean competition ratio ([1]; 50 µM): 0.208 | log2 mean competition ratio ([1]; 200 µM): 0.0883 | log2 mean competition ratio ([2]; 50 µM): 0.238 | log2 mean competition ratio ([2]; 200 µM): -0.00199

NR3C1 C463 (UniProt P04150)
log2 mean competition ratio ([1]; 50 µM): -0.0965 | log2 mean competition ratio ([1]; 200 µM): 0.584 | log2 mean competition ratio ([2]; 50 µM): 0.234 | log2 mean competition ratio ([2]; 200 µM): 0.668

NUP93 C569 (UniProt Q8N1F7)
log2 mean competition ratio ([1]; 50 µM): -0.0523 | log2 mean competition ratio ([1]; 200 µM): -0.0923 | log2 mean competition ratio ([2]; 50 µM): -0.273 | log2 mean competition ratio ([2]; 200 µM): -0.134

NSD2 C594 (UniProt O96028)
log2 mean competition ratio ([1]; 50 µM): -0.385 | log2 mean competition ratio ([1]; 200 µM): 0.153 | log2 mean competition ratio ([2]; 50 µM): 0.00441 | log2 mean competition ratio ([2]; 200 µM): -0.0149

OGA C166 (UniProt O60502)
log2 mean competition ratio ([1]; 50 µM): 0.584 | log2 mean competition ratio ([1]; 200 µM): 0.412 | log2 mean competition ratio ([2]; 50 µM): 0.085 | log2 mean competition ratio ([2]; 200 µM): 0.344

ORC4 C421 (UniProt O43929)
log2 mean competition ratio ([1]; 50 µM): 0.216 | log2 mean competition ratio ([1]; 200 µM): 0.169 | log2 mean competition ratio ([2]; 50 µM): -0.275 | log2 mean competition ratio ([2]; 200 µM): 0.144

NTMT1 C195
log2 mean competition ratio ([1]; 50 µM): 0.354 | log2 mean competition ratio ([1]; 200 µM): 0.414 | log2 mean competition ratio ([2]; 50 µM): 0.293 | log2 mean competition ratio ([2]; 200 µM): 0.111

NSD3 C173 (UniProt Q9BZ95)
log2 mean competition ratio ([1]; 50 µM): 0.0329 | log2 mean competition ratio ([1]; 200 µM): -0.306 | log2 mean competition ratio ([2]; 50 µM): -0.211 | log2 mean competition ratio ([2]; 200 µM): -0.226

NUP37 C311 (UniProt Q8NFH4)
log2 mean competition ratio ([1]; 50 µM): 0.0688 | log2 mean competition ratio ([1]; 200 µM): -0.317 | log2 mean competition ratio ([2]; 50 µM): -0.593 | log2 mean competition ratio ([2]; 200 µM): -0.328

NUP155 C917 (UniProt O75694)
log2 mean competition ratio ([1]; 50 µM): 0.0384 | log2 mean competition ratio ([1]; 200 µM): -0.135 | log2 mean competition ratio ([2]; 50 µM): 0.157 | log2 mean competition ratio ([2]; 200 µM): -0.107

Reference: the supplement of paper PMC11732987, “Enantioselective OTUD7B fragment discovery through chemoproteomics screening and high-throughput optimisation” (Communications Chemistry, 2025)
